From PMC6745524, “Diverse roles of TssA‐like proteins in the assembly of bacterial type VI secretion systems” (The EMBO Journal, 2019)

Molecular target: T1, TssAVC, bacterial two-hybrid fusion (Vibrio cholerae) (UniProt Q9KN46)
T1 sequence: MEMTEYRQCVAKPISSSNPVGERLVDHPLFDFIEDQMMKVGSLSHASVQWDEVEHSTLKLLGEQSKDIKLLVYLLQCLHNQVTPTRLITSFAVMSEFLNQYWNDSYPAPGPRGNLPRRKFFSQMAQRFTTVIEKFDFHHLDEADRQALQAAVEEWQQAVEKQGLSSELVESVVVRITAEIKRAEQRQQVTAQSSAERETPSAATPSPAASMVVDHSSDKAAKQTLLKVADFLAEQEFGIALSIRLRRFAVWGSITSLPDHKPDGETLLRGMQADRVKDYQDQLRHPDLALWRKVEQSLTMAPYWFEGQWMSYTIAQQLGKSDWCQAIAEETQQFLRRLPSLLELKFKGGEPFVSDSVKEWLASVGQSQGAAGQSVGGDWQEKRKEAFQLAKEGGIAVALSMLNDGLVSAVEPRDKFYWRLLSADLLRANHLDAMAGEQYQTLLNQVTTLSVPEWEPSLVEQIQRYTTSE
Test: two-hybrid; bacterial two-hybrid system (Euromedex); cells incubated at 30°C for 24-48 h

Substance	binding
ClpV, bacterial two-hybrid fusion (Vibrio cholerae)	binds
TagAVC, bacterial two-hybrid fusion (Vibrio cholerae)	binds
VipB, bacterial two-hybrid fusion (Vibrio cholerae)	binds

No constants are given. Whether binding was seen depends on the method and setting. Binding can be weak; no strength is given. Tags and fused reporters may be left off the sequences shown.
